Article PMC10163288
This is one part of the list.

B1: il10ra_site1_sap_11_mot_HHH_b1_07768_000000240_0001_18_35_H_._HHH_b1_01268_0001_0000200021_0000002_0_0001_af2pred_0001 (protein)
chain: SSSSSDEEVRERIEELLEEAEQISDEEEAVQVLFEALRLADELGDEEIFRAVIEVAIRLHSSSSS
B2: il10ra_site1_sap_13_mot_9c3e5e2d2b9ffb70dc788f52fbfab6d5_0001_1_000000198_0001_1_14_H_._HHH_b1_03259_0001_0000500036_0000001_0_0001 (protein)
chain: SSSSDEELRELVREVLELMFRGNPEEAEELAEQLLELAEELGDPLAEAIRMLLEIIRRSKSSSSS
B3: il10ra_site1_sap_18_mot_HHH_b2_00033_000000036_0001_41_54_H_._HHH_b1_01859_0001_0000100001_0000001_0_0001_af2pred_0001 (protein)
chain: SSSSDDEERERYAVEALLLAARRVEDEELVRATLRLAKQIAELLNDPELRRLVEELEEELSSSSS
B4: il10ra_site1_sap_18_mot_HHH_b1_08176_000000188_0001_1_20_H_._HHH_b2_06969_af2_0001_0000200016_0000001_0_0001 (protein)
chain: SSSSSDEAAEQIYKLIREAMEIDDKEEAREILEEALELAEEAGNQVLAIQVRFALEQLHSSSSSS
B5: il10ra_site1_normal_mot_HHH_b2_00277_af2_000000172_0001_1_17_H_._HHH_b2_05212_0001_0000100013_0000001_0_af2pred_0001 (protein)
chain: SSSSDEEVRERVEELLEEAKKVEDPKEVAELLTRAFALATRNRDEELRELVKKVAQEVSESSSSS
B6: il10ra_site1_sap_19_mot_HHH_b1_08508_000000230_0001_42_56_H_._HHH_b1_06584_0001_0000100001_0000001_0_0001 (protein)
chain: SSSSDEERLRVSHLLIQAYAAANEGDEEAVEELLEEARRVAEEGNDPRLEEIVEIVAEELLSSSS
B7: il10ra_site1_sap_21_mot_HHH_b1_05126_000000010_0001_38_52_H_._HHH_b1_01143_0001_0000100005_0000001_1_0001 (protein)
chain: SSSSSDEEEEAEELLEELERLVERNDPERFLKVSIRLLHLAFQLRDHELLQRIWELARAFSSSSS
B8: il10ra_site1_normal_mot_HHH_b2_05540_000000178_0001_1_18_H_._HHH_b1_06139_0001_0000200023_0000002_0 (protein)
chain: SSSSDEEEEELREYLKEIEELIEEGDPQRALQLIWEAAKLAAEANDDEILRILLELLRFVASSSS
B9: il10ra_site1_sap_21_mot_HHH_b2_03220_af2_000000223_0001_23_40_H_._HHH_b1_04109_0001_0000100003_0000001_0_0001 (protein)
chain: SSSSSDELFKAVERAYREAKEAWERGDPEEAREIIEEALELARENNNWVAVMVLEAAEKMFSSSS
B10: il10ra_site1_normal_mot_HHH_b1_05056_000000217_0001_1_20_H_._HHH_b2_07492_0001_0000400021_0000001_0 (protein)
chain: SSSSDVEEEVRELLEQAEELREEGDPEKVAELLLRALELAFRNNDAEALRLIWEVVRKLADSSSS
B11: il10ra_site1_normal_mot_HHH_b1_08411_af2_000000053_0001_1_20_H_._HHH_b2_01245_0001_0000300014_0000002_0 (protein)
chain: SSSSSSEEEEEVRELLEEAKHVPDAQEFFELLRKAIEVAAKANDPELARLVIEVLREWLRSSSSS
B12: il10ra_site1_sap_14_mot_HHH_b1_04065_000000255_0001_41_56_H_._e521b9f01f45ceda164a680f45961af8_0001_af2_0001_0000200010_0000001_0_0001 (protein)
chain: SSSSDELERRAEELLQEAEERNDELLAKSARAVLQAVKRAEELGDPEYAELALRFLEQMLSSSSS
B13: il10ra_site1_normal_mot_HHH_b1_02062_000000185_0001_1_20_H_._HHH_b2_03305_0001_0000200015_0000001_0 (protein)
chain: SSSSSDVSQRLYELSRRAAELDSEGNPEEAEKLLEEAFELAEENNNLVVLHNIEYLLERASSSSS
B14: il10ra_site1_normal_mot_HHH_b2_02337_000000026_0001_38_52_H_._HHH_b1_01793_0001_0000200022_0000001_0 (protein)
chain: SSSSSEEEVEELLKELERLLEEGDQERFSRLAQKIAQLAIRVSDPELLQALWELVREFARKSSSS
B15: il10ra_site1_sap_20_mot_HHH_b1_04607_af2_000000104_0001_41_57_H_._HHH_b1_03852_0001_0000600051_0000001_0_0001_af2pred_0001 (protein)
chain: SSSSSSDEFEELLEEAERLAEELGDERIRISIELDERSYREKGDPLIERALRLLLELLSSSSSSS
B16: il10ra_site1_sap_18_mot_HHH_b1_08133_000000195_0001_1_19_H_._HHH_b1_06661_0001_0000100001_0000001_0_0001_1 (protein)
chain: SSSSSDEEYEEEVEELLEEAKRIPDPRERSHVLLRAVQLAFHGQDPELVRAVWEVFEKLFSSSSS
B17: il10ra_site1_normal_mot_HHH_b1_04592_af2_000000261_0001_39_52_H_._HHH_b1_08709_af2_0001_0000100004_0000001_0_af2pred_0001 (protein)
chain: SSSSDEEKRLVELLERLAKEAAENGDPELAERLLEAAIQIAELSGDPELEEELEELLEEISSSSS
B18: il10ra_site1_sap_18_mot_HHH_b1_06816_000000239_0001_1_19_H_._HHH_b1_02068_0001_0000100002_0000001_0_0001 (protein)
chain: SSSSSEEEELRELLEELKELVEKGDQEKVLRLALRIIRLVFRLSDPEALRELWELMERAGSSSSS
B19: il10ra_site1_normal_mot_e1dd4851c59bc1cdde016f988f6856bd_0001_1_000000200_0001_16_31_H_._HEEHE_3305_0001_0000100005_0000001_0_af2pred_0001 (protein)
chain: DLEREFENRLKFIARAANVRSVTVEEENGKIHVTIEGTERAAEIAAKSAEILAEKLGVEVEVTTE
B20: il10ra_site1_normal_mot_HHH_b2_01235_000000294_0001_1_18_H_._HHH_b2_06400_0001_0000100007_0000001_0 (protein)
chain: SSSSTEESEELYRLLREASELDQEGNPEEARRVLEEAEELAEKLGNLVLLATIEFLLEFISSSSS
B21: il10ra_site1_normal_mot_HHH_b1_06912_af2_000000235_0001_1_15_H_._HHH_b2_01017_af2_0001_0000100001_0000002_0_af2pred_0001 (protein)
chain: SSSSSSSKELEEIVKLIREALEIDDEEEAEQVLRRAEELAEENNNKLALLIIEFALRQLSSSSSS
B22: il10ra_site1_sap_12_mot_HHH_b2_02463_af2_000000222_0001_1_19_H_._HHH_b2_02639_af2_0001_0000400014_0000002_0_0001 (protein)
chain: SSSSDSLEKSIRILLEAAERMLEAGDPEYAERALHFALWDAERANDPIAEEIEELLERIGSSSSS
B23: il10ra_site1_normal_mot_HHH_b2_02337_000000026_0001_38_52_H_._96901828190b971c916e7b6b8058f7b9_0001_1_0001_0000200010_0000001_0 (protein)
chain: PIQEVIQRLVRLAFREGDPELLKALWKLVKLFEEGDPEAEELLEEVAELLKKDEEEAKRLLKELG
B24: il10ra_site1_normal_mot_8756ee2cf497b5429c717dfc0c0bcfd6_0001_000000186_0001_1_13_H_._HHH_b1_06578_af2_0001_0000300032_0000001_1_af2pred_0001 (protein)
chain: SSSSSIAEEVFRLLREAAELYHEGDKEKAEEILKEAEELAEEANDEIAKVIIEFLKRAIENSSSS
B25: il10ra_site1_sap_18_mot_HHH_b1_00682_000000235_0001_1_20_H_._HHH_b2_01115_0001_0000400025_0000001_0_0001_af2pred_dldesign_0_af2pred (protein)
chain: SSSDPDRLFEAAKHAIRVLLEEGRPEEAEATLDYYAALFEAMGKPEYAEELKKYYEKLKKEISSS
B26: il10ra_site1_sap_12_mot_HHH_b1_00456_000000263_0001_1_17_H_._HHH_b2_05065_0001_0000200009_0000001_0_0001_af2pred_0001 (protein)
chain: SSSSSSSELERLLEEIEEALERGDPQEALKLSREAARLAAELNDHEVLRILAELLKEIFSSSSSS
B27: il10ra_site1_sap_14_mot_HHH_b1_02492_000000051_0001_1_21_H_._HHH_b2_03656_0001_0000600043_0000002_0_0001_af2pred_dldesign_0_af2pred (protein)
chain: SSSSSPLEKAKAYYTEVLELAKEKNNLDALKSSLRALLHVAKLMGDEELAAELEAELKELESSSS
B28: il10ra_site1_normal_mot_HHH_b1_06256_000000091_0001_42_58_H_._HHH_b2_07403_0001_0000100014_0000001_0 (protein)
chain: SSSDTEQRVAELLFRAVRLLFEGNPEEAEKLVEEAERLAEELNDPELERYVEILLHFVKAHSSSS
B29: il10ra_site1_normal_mot_HHH_b1_06125_000000022_0001_1_19_H_._HHH_b1_05627_0001_0000300026_0000001_0 (protein)
chain: SSSSSEEREEALELIRQIARLLLRGNPEEARRLLEELRELVEEIGDPALEKAVRILEEAASSSSS
B30: il10ra_site1_sap_17_mot_HHH_b2_02463_af2_000000222_0001_1_19_H_._HHH_b1_05005_0001_0000200009_0000001_0_0001 (protein)
chain: SSSSSDRQEILELLKKAVRAALHGNPEEARELLEEAKELAEELNDERALKMIEDLLRALNSSSSS
B31: il10ra_site1_normal_mot_HHH_b1_06798_000000292_0001_1_19_H_._HHH_b1_01886_0001_0000100008_0000001_0 (protein)
chain: SSSSTLEFSVKFALRVAEQLREAGDPERVRILLEKLLEHLKEAKDPELYEEVEELLERLEKSSSS
B32: il10ra_site1_sap_24_mot_HHH_b2_00952_af2_000000228_0001_1_18_H_._HHH_b2_02316_0001_0000200021_0000001_0_0001_af2pred_0001 (protein)
chain: SSSSSDELRIRALLFLARAAERTGNPKAAKILLEWAEKLARELGDEELLEEIEELLEKLEKSSSS
B33: il10ra_site1_normal_mot_HHH_b2_00984_000000042_0001_1_20_H_._HHH_b1_02159_0001_0000100001_0000001_0 (protein)
chain: SSSSSDEEVEERVEELLEEAKQIDDPRERARLLLEATRLALQLSDAELLKEVWEVIKKLASSSSS
B34: il10ra_site1_sap_28_mot_9c3e5e2d2b9ffb70dc788f52fbfab6d5_0001_1_000000198_0001_1_14_H_._HHH_b1_02400_0001_0000300013_0000001_0_0001 (protein)
chain: SSSSSEEVEELLEEAEEALKNGDPEKARELILEALQIAFRLKDPELLQKVWKVLKEIAEKASSSS
B35: il10ra_site1_sap_16_mot_HHH_b2_03328_af2_000000127_0001_1_19_H_._HHH_b1_02175_0001_0000100001_0000002_0_0001 (protein)
chain: SSSSSEEERYLELSLRFLRWLLEVGDEEAAERMARILLELAEDLNDEEVRREVEEILKELSSSSS
B36: il10ra_site1_normal_mot_HHH_b1_01821_000000158_0001_23_39_H_._ems_p1-15H-GBL-16H-GABBL-16H_0222_0001_0001_0002_af2_0001_0000700013_0000001_0 (protein)
chain: SSSSSDFVRAILEAVRLALEAGDEEALQRLWEIFKKAINGKMSEEEAEERAEEIAKELESSSSSS
B37: il10ra_site1_sap_16_mot_HHH_b1_06789_af2_000000041_0001_1_20_H_._HHH_b1_04240_af2_0001_0000500015_0000001_0_0001 (protein)
chain: SSSSSDEEYEEEVERLLEEAEKIPDPREAAEVLLKALRVALRGNDPELLHLVWEVLEEISSSSSS

Target: il10ra, Q13651
Test: yeast display titration

Apparent Kd, inactive:
B1 no binding seen, B2 no binding seen, B3 no binding seen, B4 no binding seen, B5 no binding seen, B6 no binding seen, B7 no binding seen, B8 no binding seen, B9 no binding seen, B10 no binding seen, B11 no binding seen, B12 no binding seen, B13 no binding seen, B14 no binding seen, B15 no binding seen, B16 no binding seen, B17 no binding seen, B18 no binding seen, B19 no binding seen, B20 no binding seen, B21 no binding seen, B22 no binding seen, B23 no binding seen, B24 no binding seen, B25 > 670 nM, B26 no binding seen, B27 no binding seen, B28 no binding seen, B29 no binding seen, B30 no binding seen, B31 no binding seen, B32 no binding seen, B33 no binding seen, B34 no binding seen, B35 no binding seen, B36 no binding seen, B37 no binding seen
